Source: PubChem BioAssay AID504467 (National Center for Advancing Translational Sciences (NCATS), 2011)
Out of some 330,000 compounds screened, about 7,700 (2.3%) were called active. The inconclusive results got no clear call from the source; some entries with a clear call stand among them for comparison. Calls come from the whole dose curve; as a rule, active = well fitted inhibition curve with a large enough effect; inconclusive = small, poorly fitted or top-dose-only effect, or effect the other way; inactive = flat fitted curve, though single readings scatter. Potencies of inconclusive entries are doubtful fits and often do not repeat.

Experiment: qHTS screen for small molecules that inhibit ELG1-dependent DNA repair in human embryonic kidney (HEK293T) cells expressing luciferase-tagged ELG1; note: nearly all actives have a fitted effect of over 55% in size
Conditions: HEK293T ELG1-luciferase reporter, luminescence, 16 h, DNA damage induced by 5-fluorouridine; activity change, negative = inhibition: at 46.1 µM (top of the series)
Outline: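 HEK293T cells expressing luciferase-tagged ELG1 (2,000/well) received 5-Fluorouridine plus compound or DMSO for 16 hr at 37 °C. Luciferase was read by ONE-Glo luminescence after 30 min at room temperature.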
% is set by controls: 0 for no effect and ±100 for the full control effect; potency is the fitted concentration of half-maximal effect.

Compound | activity change, negative = inhibition | Potency
CC(OC(=O)/C=C/c1ccco1)C(=O)NC1CCCCC1C (centres undefined) | inactive: -0.0983% | 
Cc1ccc(OCc2cc(C(=O)N3CCCC3)no2)cn1 |  | inconclusive: 20.6 µM [activator, partial curve]
CC1CCN(c2cc(N3CCOCC3)c([N+](=O)[O-])cc2F)CC1 | inactive: 0.362% | 
Cc1c(-c2ccccc2)oc2c(C(=O)OCC(=O)Nc3ccc(F)cc3)cccc2c1=O |  | active: 10.3 µM
COc1cc(C(=O)NCCNc2nc3c(C)c(C)ccc3cc2C#N)cc(OC)c1OC | inactive: 0.439% | 
CN1/C(=C\C(=O)c2ccccc2Cl)c2ccccc2CC1(C)C |  | inconclusive: 29.1 µM [inhibitor, single point]
NC(=O)N/N=C/c1coc2ccc(O)cc2c1=O |  | inconclusive: 20.6 µM [inhibitor, single point]
COc1cc2c(cc1OC)C(C)N(S(=O)(=O)c1cn(C)c(C)n1)CC2 (centres undefined) |  | inconclusive: 20.6 µM [activator, partial curve, poor fit]
COc1ccccc1C(=O)Nc1cc2c(cc1C(=O)O)OCCCO2 | inactive: 18.1% | 
Cc1cccc(N(C(=O)c2snc(C(N)=O)c2N)C(C(=O)NCC2CCCO2)c2ccc3ncccc3c2)c1 (centres undefined) |  | inconclusive: 13 µM [inhibitor, partial curve, poor fit]
N#Cc1nc(COc2ccc(Cl)cc2Cl)oc1N1CCOCC1 |  | inconclusive: 6.51 µM [activator, partial curve, poor fit]
O=S1(=O)CCN(Cc2ccccn2)CC1 | inactive: -0.459% | 
CCc1ccc(N/C(N)=N/c2nc(CSc3ncccn3)cc(=O)[nH]2)cc1 |  | inconclusive: 18.3 µM [inhibitor, single point]
CCc1ccccc1NC(=O)CNC(=O)CCNC(=O)Nc1ccccc1 | inactive: -0.638% | 
CCCS(=O)(=O)N1CCN(CC2CC=CCC2)CC1 (centres undefined) | inactive: 13.3% | 
COc1cc(/C=N/Nc2nc(N3CCCCC3)nc(N3CCCCC3)n2)ccc1OC(=O)c1ccco1 | inactive: 6.08% | 
Cc1ccc(N2C(=O)[C@@H]3[C@H](C2=O)[C@H]2C=CC=NN2[C@@H]3C(=O)Nc2ccccc2)cc1 |  | inconclusive: 32.6 µM [activator, single point]
C#CCOCCOCCOCCNc1nc(N2CCN(C(=O)CCCCCCCCCCNC(=O)[C@H](CO)n3cc(CCCSC)nn3)CC2)nc(N2CCN(C(=O)CCCCCCCCCCNC(=O)[C@@H]([C@H](C)O)n3cc(C)nn3)CC2)n1 |  | inconclusive: 8.91 µM [inhibitor, partial curve, poor fit]
CC(C)CC(C(=O)NC1CCCC1)N(Cc1cccs1)C(=O)c1snc(C(N)=O)c1N (centres undefined) |  | active: 18.4 µM
CCC(CC)C(=O)Nc1ccc(-c2cn3cccnc3n2)cc1 |  | inconclusive: 18.3 µM [activator, partial curve]
CCCOc1ccc(C(=O)CCN2CCN(C(=O)OCC)CC2)cc1 | inactive: 29.7% | 
CNc1nnc(-c2ccc(N(C)C)cc2)s1 |  | inconclusive: 1.3 µM [activator, partial curve]

Part of the list above in a different format:
Compound,"activity change, negative = inhibition",Potency
Cc1ccc(N2C(=O)[C@@H]3[C@H](C2=O)[C@H]2C=CC=NN2[C@@H]3C(=O)Nc2ccccc2)cc1,,"inconclusive: 32.6 µM [activator, single point]"
CC(C)CC(C(=O)NC1CCCC1)N(Cc1cccs1)C(=O)c1snc(C(N)=O)c1N (centres undefined),,active: 18.4 µM

Following part:

Compound | activity change, negative = inhibition | Potency
CN1C(=O)C(C)(C)c2cc(S(=O)(=O)N3CCCC3C(=O)NCc3ccc(F)cc3)ccc21 (centres undefined) | inactive: 1.64% | 
O=C1CCCC(O)=C1C1C2=C(CCCC2=O)Oc2ccccc21 (centres undefined) |  | inconclusive: 29.1 µM [activator, partial curve, poor fit]
CCC(C)NS(=O)(=O)c1ccc(NC(=O)c2cccs2)cc1 (centres undefined) | inactive: 0% | 
Cn1c(SCc2ccc(F)cc2)nnc1-c1cccs1 |  | inconclusive: 10.3 µM [activator, partial curve]
O=C(O)c1cc2nc(C3CC3)cc(C(F)(F)F)n2n1 |  | inconclusive: 6.51 µM [inhibitor, single point]
Clc1cccc(N/N=C/c2ccc(N3CCOCC3)s2)c1 |  | inconclusive: 29.1 µM [inhibitor, single point]
Cc1ccc(C)c(S(=O)(=O)N2CCN(C(=O)Cn3[nH]c(=O)c4ccccc4c3=O)CC2)c1 |  | inconclusive: 5.17 µM [inhibitor, partial curve]
COC(=O)c1ccccc1NC(=O)C1CC(c2ccccc2O)=NO1 (centres undefined) |  | inconclusive: 4.61 µM [inhibitor, single point]
O=C(/C=C/c1ccccc1)n1cnnc1SC/C=C/c1ccccc1 |  | inconclusive: 18.4 µM [activator, partial curve]
O=C(Nc1nnc(S(=O)(=O)N2CCN(c3ccc(F)cc3)CC2)s1)c1ccccc1 |  | inconclusive: 14.6 µM [activator, partial curve]
COc1ccc(-c2c(C#Cc3ccsc3)c3cc(-c4ccc5[nH]ccc5c4)ccc3n2C)cc1 | inactive: 6.46% | 
COc1ccc(CNC(=O)C2CCN(S(=O)(=O)c3cccc4nonc34)CC2)cc1 | inactive: 0.859% | 
Cc1ccc(SCC(=O)Nc2ccc(F)cc2[N+](=O)[O-])cc1C | inactive: 1.31% | 
Cc1nc(-c2cccc(NC(=O)c3ccc(-n4cccn4)cc3)c2)cs1 |  | inconclusive: 14.1 µM [inhibitor, single point]
O=C(COC(=O)c1cc2ccccc2oc1=O)Nc1cccc(S(=O)(=O)N2CCCCCC2)c1 |  | inconclusive: 11.6 µM [activator, single point]
CC12CCC(C/C1=N\N=C1\NC(=O)/C(=C\c3ccc(Cl)cc3)S1)C2(C)C (centres undefined) |  | inconclusive: 10.3 µM [activator, partial curve]
COc1ccccc1NC(=O)Nc1nc(CC(=O)Nc2ccc(F)cc2)cs1 |  | inconclusive: 29.1 µM [inhibitor, single point]
CCn1c(=O)cc(SCC(=O)NCc2ccco2)c2ccccc21 |  | inconclusive: 23.1 µM [activator, single point]
Cc1c(Cl)cccc1NC(=S)N1CCCN(Cc2ccc(F)cc2)C1 | inactive: 1.02% | 
O=C(Cn1cc[n+](Cc2ccccc2)c1)c1ccc([N+](=O)[O-])cc1 |  | active: 14.6 µM
O=c1[nH]c2ccccc2nc1-c1ccc(Cl)cc1 |  | inconclusive: 14.6 µM [activator, partial curve]
O=C1SC(c2ccccc2)=C/C1=C\N1CCCCC1 |  | inconclusive: 20.6 µM [activator, single point]
